# In PubChem BioAssay AID248 (DTP/NCI, 2004):
# The list does not hold the whole screen: it gathers tests that were run many times, whatever their T/C, doses with no T/C, and many T/C values between a quarter and a half above the control. Other doses and runs of a compound stand elsewhere. T/C: endpoint of the treated group in % of that of the vehicle group. Some entries give survivors of the animals treated and no T/C: the source holds a T/C of zero for them, seemingly a mark for toxic or unscored doses. Some survivor counts are full or nearly so, which does not show that the dose was tolerated: survival well below the control is almost never listed, so the zero probably covers shortened survival too. Counts of survivors are from the toxicity check (mostly the fifth day) where no day follows; animals may have died later. Schedule codes are those of the source, taken here to give the interval after Q, in days (D) or hours (H), and the number of doses after X. Some structures stand for samples that the source files as different forms (salt, stereo form or complex); doses refer to the form tested. Some schedule codes hold Z or #, which are not explained here. Some entries hold several experiments; the values are given in rising order. Where survival is the endpoint, this PubChem deposit counts one and a half times the control or more as active, and values a quarter to a half above the control carry no call in these data; other NCI protocols may use other cut-offs. Marks such as (2×) stand for listed records that agree. Some T/C values carry the count of animals alive at the toxicity check (mostly the fifth day); where none is given, no animal had died by that day.
# System: L1210 leukemia ip in BDF1 mice, survival T/C
# Experiment: NCI In Vivo Anticancer Drug Screen. Data for tumor model L1210 Leukemia (intraperitoneal) in B6D2F1 (BDF1) mice
# Settings: T/C endpoint: mean survival time, higher T/C = longer survival
# [1] = dose: 20.0 mg/kg/injection, schedule: Q01DX001 (ip), vehicle: saline
# [2] = dose: 80.0 mg/kg/injection, schedule: Q01DX001 (ip), vehicle: saline
# [3] = dose: 200.0 mg/kg/injection, schedule: Q01DX009 (ip), vehicle: Klucel (hydroxypropylcellulose) (HPC)
# [4] = dose: 400.0 mg/kg/injection, schedule: Q01DX009 (ip), vehicle: saline
# [5] = dose: 200.0 mg/kg/injection, schedule: Q04DX002 (ip), vehicle: saline
# [6] = dose: 100.0 mg/kg/injection, schedule: Q01DX009 (ip), vehicle: Klucel (hydroxypropylcellulose) (HPC)
# [7] = dose: 400.0 mg/kg/injection, schedule: Q01DX001 (ip), vehicle: saline
# [8] = dose: 400.0 mg/kg/injection, schedule: Q01DX009 (ip), vehicle: Klucel (hydroxypropylcellulose) (HPC)
smiles,measurement,setting,value
C1CN1P1(N2CC2)=NP(N2CC2)(N2CC2)=NP(N2CC2)(N2CC2)=NP(N2CC2)(N2CC2)=N1,T/C,"dose: 3.12 mg/kg/injection, schedule: Q01DX009 (ip), vehicle: saline",127 % of control
same,T/C,"dose: 6.25 mg/kg/injection, schedule: Q01DX009 (ip), vehicle: saline",138 % of control
same,T/C,"dose: 10.0 mg/kg/injection, schedule: Q04DX003 (ip), vehicle: saline",129 % of control
same,T/C,"dose: 12.5 mg/kg/injection, schedule: Q01DX009 (ip), vehicle: saline",128 % of control
same,T/C,"dose: 15.0 mg/kg/injection, schedule: Q04DX003 (ip), vehicle: saline",125 % of control
same,T/C,[1],134 % of control
same,T/C,"dose: 20.0 mg/kg/injection, schedule: Q04DX003 (ip), vehicle: saline",140 % of control
same,survivor count,"dose: 25.0 mg/kg/injection, schedule: Q01DX009 (ip), vehicle: saline",4 of 6
same,T/C,"dose: 40.0 mg/kg/injection, schedule: Q04DX003 (ip), vehicle: saline",145 % of control
same,survivor count,[2],5 of 6
same,survivor count,"dose: 80.0 mg/kg/injection, schedule: Q04DX003 (ip), vehicle: saline",4 of 6
same,survivor count,"dose: 160.0 mg/kg/injection, schedule: Q04DX003 (ip), vehicle: saline",5 of 6
c1ccc(C2c3cc4ccccc4cc3Oc3ccc4ccccc4c32)cc1 (configuration not stated),survivor count,"dose: 150.0 mg/kg/injection, schedule: Q04DX003 (ip), vehicle: other",6 of 6
CCCCCCCCCCCCCCCCCCC1=NCCN1,survivor count,"dose: 37.5 mg/kg/injection, schedule: Q04DX003 (ip), vehicle: saline",1 of 6
same,survivor count,"dose: 75.0 mg/kg/injection, schedule: Q04DX003 (ip), vehicle: saline",0 of 6
same,survivor count,"dose: 150.0 mg/kg/injection, schedule: Q01DX001 (ip), vehicle: acetone",2 of 6
same,survivor count,"dose: 300.0 mg/kg/injection, schedule: Q01DX001 (ip), vehicle: acetone",1 of 6
Cc1cc(C)c(NC(=O)C(C)(C)C)c(C)c1,survivor count,[3],6 of 6
CCN=C(N)Nc1ccc(NC(=O)c2ccc(C(=O)Nc3ccc(NC(N)=NCC)cc3)cc2)cc1,T/C,"dose: 0.5 mg/kg/injection, schedule: Q01DX Z (ip), vehicle: carboxymethylcellulose (CMC)",125 % of control
same,T/C,"dose: 14.0 mg/kg/injection, schedule: Q01DX001 (ip), vehicle: carboxymethylcellulose (CMC)",131 % of control
same,T/C,"dose: 14.0 mg/kg/injection, schedule: Q01DX001 (ip), vehicle: other",144 % of control
same,survivor count,"dose: 64.0 mg/kg/injection, schedule: Q01DX Z (ip), vehicle: carboxymethylcellulose (CMC)",0 of 6
same,survivor count,"dose: 720.0 mg/kg/injection, schedule: Q01DX001 (ip), vehicle: carboxymethylcellulose (CMC)",0 of 10
same,survivor count,"dose: 720.0 mg/kg/injection, schedule: Q01DX001 (ip), vehicle: other",0 of 10
same,survivor count,"dose: 1080.0 mg/kg/injection, schedule: Q01DX001 (ip), vehicle: carboxymethylcellulose (CMC)",1 of 10
same,survivor count,"dose: 1080.0 mg/kg/injection, schedule: Q01DX001 (ip), vehicle: other",0 of 10
O=C(O)C(=O)/C=C/c1cccc([N+](=O)[O-])c1,survivor count,[4],0 of 6
NOCCCCON,T/C,"dose: 100.0 mg/kg/injection, schedule: Q04DX002 (ip), vehicle: saline","93, 98, 100 % of control (2×)"
same,survivor count,[5],0 of 6
same,survivor count,[4],0 of 3 and 1 of 6
same,survivor count,"dose: 400.0 mg/kg/injection, schedule: Q04DX002 (ip), vehicle: saline",0 of 3 and 0 of 6
same,survivor count,"dose: 400.0 mg/kg/injection, schedule: Q04DX003 (ip), vehicle: saline",6 of 6
OC1C(O)C(O)C2(CO2)C(O)C1O (configuration not stated),T/C,"dose: 300.0 mg/kg/injection, schedule: Q01DX Z (ip), vehicle: saline",133 % of control
CC(=O)Oc1ccc(Nc2c3ccccc3nc3ccccc23)cc1,T/C,"dose: 50.0 mg/kg/injection, schedule: Q04DX002 (ip), vehicle: saline with Tween-80",145 % of control
same,survivor count,"dose: 200.0 mg/kg/injection, schedule: Q04DX002 (ip), vehicle: saline with Tween-80",3 of 3
same,survivor count,"dose: 225.0 mg/kg/injection, schedule: Q04DX003 (ip), vehicle: saline with Tween-80",1 of 10
CC#CC(=O)SCCNC(=O)CC,survivor count,"dose: 100.0 mg/kg/injection, schedule: Q01DX009 (ip), vehicle: saline with Tween-80",2 of 6
same,survivor count,"dose: 400.0 mg/kg/injection, schedule: Q04DX003 (ip), vehicle: saline with Tween-80",0 of 6
CCN1CSC(=S)N(CC)C1,survivor count,[6],2 of 6
CN(NCc1ccccc1)C(=N)N,survivor count,"dose: 200.0 mg/kg/injection, schedule: Q01DX001 (ip), vehicle: saline",1 of 6
same,survivor count,[7],0 of 6
COc1c(NC(=O)c2ccccc2Cl)cccc1[N+](=O)[O-],survivor count,[3],6 of 6
same,survivor count,[8],6 of 6
CCCCCCCCCC(=O)N/N=C/c1ccco1,survivor count,[8],4 of 6
c1nc(Sc2ncnc3nc[nH]c23)c2[nH]cnc2n1,T/C,"dose: 75.0 mg/kg/injection, schedule: Q01DX015 (ip), vehicle: other",126 % of control
same,T/C,"dose: 150.0 mg/kg/injection, schedule: Q01DX015 (ip), vehicle: saline",137 % of control [5 of 6 alive]
same,T/C,"dose: 300.0 mg/kg/injection, schedule: Q01DX015 (ip), vehicle: saline",142 % of control
same,T/C,[7],125 % of control
same,T/C,"dose: 534.0 mg/kg/injection, schedule: Q01DX001 (ip), vehicle: saline",125 % of control
same,T/C,"dose: 800.0 mg/kg/injection, schedule: Q01DX001 (ip), vehicle: saline",126 % of control
CN1CCC(O)(C#N)CC1,survivor count,"dose: 30.0 mg/kg/injection, schedule: Q01DX001 (ip), vehicle: saline",1 of 6
Cc1cc(O)c2cc3c(O)c(O)ccc3cc2c1,survivor count,"dose: 16.0 mg/kg/injection, schedule: Q01DX015 (ip), vehicle: saline",2 of 6
same,survivor count,[1],0 of 6
same,survivor count,"dose: 32.0 mg/kg/injection, schedule: Q01DX015 (ip), vehicle: saline",2 of 6
same,survivor count,"dose: 40.0 mg/kg/injection, schedule: Q01DX001 (ip), vehicle: saline",0 of 6
same,survivor count,"dose: 50.0 mg/kg/injection, schedule: Q01DX001 (ip), vehicle: carboxymethylcellulose (CMC)",3 of 6
same,survivor count,[2],0 of 6
same,survivor count,"dose: 100.0 mg/kg/injection, schedule: Q01DX001 (ip), vehicle: carboxymethylcellulose (CMC)",3 of 6
same,survivor count,"dose: 200.0 mg/kg/injection, schedule: Q01DX001 (ip), vehicle: carboxymethylcellulose (CMC)",5 of 6
same,survivor count,"dose: 400.0 mg/kg/injection, schedule: Q01DX001 (ip), vehicle: carboxymethylcellulose (CMC)",0 of 6
Cc1ccc(NC(=O)N(CCCl)N=O)cc1NC(=O)N(CCCl)N=O,T/C,"dose: 177.0 mg/kg/injection, schedule: Q01DX009 (ip), vehicle: carboxymethylcellulose (CMC)",144 % of control
OCc1ccc(OCc2ccccc2)c(OCc2ccccc2)c1,survivor count,"dose: 200.0 mg/kg/injection, schedule: Q01DX009 (ip), vehicle: other",6 of 6
same,survivor count,"dose: 400.0 mg/kg/injection, schedule: Q01DX009 (ip), vehicle: other",3 of 6
Cc1ccc(S(=O)(=O)NC(=O)N(Cc2ccccc2)C(C)(C)C)cc1,survivor count,[6],3 of 6
C=C/C=C1\CCOC1=O,T/C,[5],127 % of control
O=C(O)CCCCc1ccc(CCCCC(=O)O)cc1,survivor count,"dose: 200.0 mg/kg/injection, schedule: Q01DX009 (ip), vehicle: saline with Tween-80",0 of 6
same,survivor count,"dose: 400.0 mg/kg/injection, schedule: Q04DX003 (ip), vehicle: Klucel (hydroxypropylcellulose) (HPC)",3 of 6
